Data on one substance can be found in paper PMC11103130.

Chains of the proteins cited; added tags and fusions are not shown.
UniProt P51608: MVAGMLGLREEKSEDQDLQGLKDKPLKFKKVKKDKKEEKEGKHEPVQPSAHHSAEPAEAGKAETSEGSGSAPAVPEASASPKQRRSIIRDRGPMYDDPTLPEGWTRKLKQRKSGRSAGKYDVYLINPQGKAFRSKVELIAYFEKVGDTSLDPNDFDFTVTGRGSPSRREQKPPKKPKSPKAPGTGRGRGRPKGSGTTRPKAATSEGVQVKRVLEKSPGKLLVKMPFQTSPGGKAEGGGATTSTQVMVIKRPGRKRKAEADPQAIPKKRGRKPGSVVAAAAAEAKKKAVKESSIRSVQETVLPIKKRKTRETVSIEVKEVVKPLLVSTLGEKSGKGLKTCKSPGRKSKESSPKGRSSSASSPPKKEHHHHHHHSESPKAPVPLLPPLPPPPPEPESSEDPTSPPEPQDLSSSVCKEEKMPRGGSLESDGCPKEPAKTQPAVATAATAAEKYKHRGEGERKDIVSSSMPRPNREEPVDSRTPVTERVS

Assay [1] concerns the target T1, sperm equatorial segment protein 1 (SPESP1), endogenous (human (endogenous; cells of this co-IP not named, HDFs or 293T)) (UniProt Q6UW49).
T1 sequence: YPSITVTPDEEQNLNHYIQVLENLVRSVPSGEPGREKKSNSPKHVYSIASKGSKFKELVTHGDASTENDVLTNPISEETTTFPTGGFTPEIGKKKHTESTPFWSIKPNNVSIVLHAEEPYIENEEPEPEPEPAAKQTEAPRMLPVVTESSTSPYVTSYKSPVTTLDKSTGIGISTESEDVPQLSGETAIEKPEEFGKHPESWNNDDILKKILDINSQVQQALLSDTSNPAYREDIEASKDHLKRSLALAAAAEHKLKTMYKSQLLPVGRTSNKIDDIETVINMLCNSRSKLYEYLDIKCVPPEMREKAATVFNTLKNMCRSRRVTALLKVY
The assay is described as follows: co-IP; endogenous co-immunoprecipitation of SPESP1 and MeCP2; cells and precipitating antibody not stated.

The target in another assay is T2, Flag-SPESP1 (UniProt Q6UW49).
T2 sequence: T1 sequence
Nature of the assay: co-IP; semi-endogenous: Flag-SPESP1 with endogenous MeCP2; NP-40 IP lysis buffer with protease inhibitors, flag-coupled magnetic beads overnight at 4°C, washed three times with lysis buffer.

Results are given in words; binding and its absence hold for the method and conditions named. Binding seen in cells or lysates may run through a third protein. Some binding calls cover weakened binding; strength is not graded here. Where a sequence is shown, tags or fusion partners need not be part of it.

“methyl-CpG-binding protein 2 (MeCP2), endogenous (from UniProt P51608 1-486)”: the binding entry (in assay [1]; with Flag-SPESP1) was “binds” each time.
